{"source": "the supplement of paper PMC8728848", "assay_in_all_cases": "glycan array binding signal (z-score within array); higher = stronger binding", "conditions_in_all_cases": "glycan notation: IUPAC condensed, linker removed", "key": {"Fuc(a1-3)GlcNAc": {"target": "Fuc(a1-3)GlcNAc", "outline": "(§1)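 Negative Z-scores can be read as non-binding. The Z-score is calculated within each array and then averaged across arrays of one protein sequence at different concentrations or buffers and across linkers. Arrays, 3228 in all, were curated from the Consortium for Functional Glycomics database and kept only where the protein sequence was available.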"}, "[1]": {"target": "Fuc(a1-3)[Gal(b1-4)]Glc6S", "outline": "as §1"}, "[2]": {"target": "Fuc(a1-3)[Gal(b1-4)]GlcNAc", "outline": "as §1"}, "[3]": {"target": "Fuc(a1-3)[Gal(b1-4)]GlcNAc(b1-2)Man", "outline": "as §1"}, "[4]": {"target": "Fuc(a1-3)[Gal(b1-4)]GlcNAc(b1-2)Man(a1-3)[Fuc(a1-3)[Gal(b1-4)]GlcNAc(b1-2)Man(a1-6)]Man(b1-4)GlcNAc(b1-4)GlcNAc", "outline": "as §1"}, "[5]": {"target": "Fuc(a1-3)[Gal(b1-4)]GlcNAc(b1-2)Man(a1-3)[Fuc(a1-3)[Gal(b1-4)]GlcNAc(b1-2)Man(a1-6)]Man(b1-4)GlcNAc(b1-4)[Fuc(a1-6)]GlcNAc", "outline": "as §1"}, "[6]": {"target": "Fuc(a1-3)[Gal(b1-4)]GlcNAc(b1-3)Gal(b1-3)[Fuc(a1-4)]GlcNAc", "outline": "as §1"}, "[7]": {"target": "Fuc(a1-3)[Gal(b1-4)]GlcNAc(b1-3)Gal(b1-4)[Fuc(a1-3)]GlcNAc", "outline": "as §1"}, "[8]": {"target": "Fuc(a1-3)[Gal(b1-4)]GlcNAc(b1-3)Gal(b1-4)[Fuc(a1-3)]GlcNAc(b1-3)Gal(b1-4)[Fuc(a1-3)]GlcNAc", "outline": "as §1"}, "[9]": {"target": "Fuc(a1-3)[Gal(b1-4)]GlcNAc(b1-3)GalNAc", "outline": "as §1"}, "[10]": {"target": "Fuc(a1-3)[Gal(b1-4)]GlcNAc(b1-6)GalNAc", "outline": "as §1"}, "[11]": {"target": "Fuc(a1-3)[Gal(b1-4)]GlcNAc(b1-6)[Gal(b1-3)GlcNAc(b1-3)]Gal(b1-4)Glc", "outline": "as §1"}, "[12]": {"target": "Fuc(a1-3)[Gal(b1-4)]GlcNAc6S", "outline": "as §1"}, "[13]": {"target": "Fuc(a1-3)[Gal3S(b1-4)]Glc", "outline": "as §1"}, "[14]": {"target": "Fuc(a1-3)[Gal3S(b1-4)]GlcNAc", "outline": "as §1"}, "[15]": {"target": "Fuc(a1-3)[Gal3S(b1-4)]GlcNAc6S", "outline": "as §1"}, "[16]": {"target": "Fuc(a1-3)[GalNAc(b1-4)]GlcNAc", "outline": "as §1"}, "[17]": {"target": "Fuc(a1-3)[GalNAc(b1-4)]GlcNAc6S", "outline": "as §1"}, "Fuc(a1-4)GlcNAc": {"target": "Fuc(a1-4)GlcNAc", "outline": "as §1"}, "Fuc(b1-3)GlcNAc": {"target": "Fuc(b1-3)GlcNAc", "outline": "as §1"}, "Gal(a1-2)Gal": {"target": "Gal(a1-2)Gal", "outline": "as §1"}, "Gal(a1-3)Gal": {"target": "Gal(a1-3)Gal", "outline": "as §1"}, "Gal(a1-3)Gal(b1-3)GlcNAc": {"target": "Gal(a1-3)Gal(b1-3)GlcNAc", "outline": "as §1"}, "[18]": {"target": "Gal(a1-3)Gal(b1-3)GlcNAc(b1-2)Man", "outline": "as §1"}, "[19]": {"target": "Gal(a1-3)Gal(b1-3)GlcNAc(b1-2)Man(a1-3)[Gal(a1-3)Gal(b1-3)GlcNAc(b1-2)Man(a1-6)]Man(b1-4)GlcNAc(b1-4)GlcNAc", "outline": "as §1"}, "[20]": {"target": "Gal(a1-3)Gal(b1-3)GlcNAc(b1-3)GalNAc", "outline": "as §1"}, "[21]": {"target": "Gal(a1-3)Gal(b1-3)GlcNAc(b1-6)GalNAc", "outline": "as §1"}, "[22]": {"target": "Gal(a1-3)Gal(b1-3)[Fuc(a1-4)]GlcNAc(b1-2)Man(a1-3)[Gal(a1-3)Gal(b1-3)[Fuc(a1-4)]GlcNAc(b1-2)Man(a1-6)]Man(b1-4)GlcNAc(b1-4)GlcNAc", "outline": "as §1"}, "Gal(a1-3)Gal(b1-4)Glc": {"target": "Gal(a1-3)Gal(b1-4)Glc", "outline": "as §1"}, "Gal(a1-3)Gal(b1-4)GlcNAc": {"target": "Gal(a1-3)Gal(b1-4)GlcNAc", "outline": "as §1"}, "[23]": {"target": "Gal(a1-3)Gal(b1-4)GlcNAc(b1-2)Man", "outline": "as §1"}, "[24]": {"target": "Gal(a1-3)Gal(b1-4)GlcNAc(b1-2)Man(a1-3)[Gal(a1-3)Gal(b1-4)GlcNAc(b1-2)Man(a1-6)]Man(b1-4)GlcNAc(b1-4)GlcNAc", "outline": "as §1"}, "[25]": {"target": "Gal(a1-3)Gal(b1-4)GlcNAc(b1-3)GalNAc", "outline": "as §1"}, "[26]": {"target": "Gal(a1-3)Gal(b1-4)GlcNAc(b1-6)GalNAc", "outline": "as §1"}, "[27]": {"target": "Gal(a1-3)Gal(b1-4)[Fuc(a1-3)]GlcNAc", "outline": "as §1"}, "[28]": {"target": "Gal(a1-3)Gal(b1-4)[Fuc(a1-3)]GlcNAc(b1-2)Man(a1-3)[Gal(a1-3)Gal(b1-4)[Fuc(a1-3)]GlcNAc(b1-2)Man(a1-6)]Man(b1-4)GlcNAc(b1-4)GlcNAc", "outline": "as §1"}, "Gal(a1-3)GalNAc": {"target": "Gal(a1-3)GalNAc", "outline": "as §1"}}, "note": "Some of the results follow.", "data": [{"binder": "SynCAM (Mus musculus) (protein) MASAVLPSGSQCAAAAAVAAAAAPPGLRLRLLLLLLSAAALIPTGDGQNLFTKDVTVIEGEVATISCQVNKSDDSVIQLLNPNRQTIYFRDFRPLKDSRFQLLNFSSSELKVSLTNVSISDEGRYFCQLYTDPPQESYTTITVLVPPRNLMIDIQKDTAVEGEEIEVNCTAMASKPATTIRWFKGNKELKGKSEVEEWSDMYTVTSQLMLKVHKEDDGVPVICQVEHPAVTGNLQTQRYLEVQYKPQVHIQMTYPLQGLTREGDAFELTCEAIGKPQPVMVTWVRVDDEMPQHAVLSGPNLFINNLNKTDNGTYRCEASNIVGKAHSDYMLYVYDPPTTIPPP", "values": [{"measurement": "glycan array binding signal (z-score)", "setting": "Fuc(a1-3)GlcNAc", "result": -0.37}, {"measurement": "glycan array binding signal (z-score)", "setting": "[1]", "result": -1.77}, {"measurement": "glycan array binding signal (z-score)", "setting": "[2]", "result": -0.177}, {"measurement": "glycan array binding signal (z-score)", "setting": "[3]", "result": -0.737}, {"measurement": "glycan array binding signal (z-score)", "setting": "[4]", "result": -1.05}, {"measurement": "glycan array binding signal (z-score)", "setting": "[5]", "result": 0.325}, {"measurement": "glycan array binding signal (z-score)", "setting": "[6]", "result": -0.868}, {"measurement": "glycan array binding signal (z-score)", "setting": "[7]", "result": 1.02}, {"measurement": "glycan array binding signal (z-score)", "setting": "[8]", "result": -0.148}, {"measurement": "glycan array binding signal (z-score)", "setting": "[9]", "result": -0.245}, {"measurement": "glycan array binding signal (z-score)", "setting": "[10]", "result": -0.537}, {"measurement": "glycan array binding signal (z-score)", "setting": "[11]", "result": -0.563}, {"measurement": "glycan array binding signal (z-score)", "setting": "[12]", "result": -0.003}, {"measurement": "glycan array binding signal (z-score)", "setting": "[13]", "result": -0.287}, {"measurement": "glycan array binding signal (z-score)", "setting": "[14]", "result": -0.415}, {"measurement": "glycan array binding signal (z-score)", "setting": "[15]", "result": -1.13}, {"measurement": "glycan array binding signal (z-score)", "setting": "[16]", "result": 2.63}, {"measurement": "glycan array binding signal (z-score)", "setting": "[17]", "result": -0.587}, {"measurement": "glycan array binding signal (z-score)", "setting": "Fuc(a1-4)GlcNAc", "result": -0.05}, {"measurement": "glycan array binding signal (z-score)", "setting": "Fuc(b1-3)GlcNAc", "result": 0.961}, {"measurement": "glycan array binding signal (z-score)", "setting": "Gal(a1-2)Gal", "result": -0.215}, {"measurement": "glycan array binding signal (z-score)", "setting": "Gal(a1-3)Gal", "result": 0.302}, {"measurement": "glycan array binding signal (z-score)", "setting": "Gal(a1-3)Gal(b1-3)GlcNAc", "result": -0.43}, {"measurement": "glycan array binding signal (z-score)", "setting": "[18]", "result": -1.05}, {"measurement": "glycan array binding signal (z-score)", "setting": "[19]", "result": -1.34}, {"measurement": "glycan array binding signal (z-score)", "setting": "[20]", "result": -0.89}, {"measurement": "glycan array binding signal (z-score)", "setting": "[21]", "result": 0.486}, {"measurement": "glycan array binding signal (z-score)", "setting": "[22]", "result": 1.69}, {"measurement": "glycan array binding signal (z-score)", "setting": "Gal(a1-3)Gal(b1-4)Glc", "result": -0.165}, {"measurement": "glycan array binding signal (z-score)", "setting": "Gal(a1-3)Gal(b1-4)GlcNAc", "result": -1.52}, {"measurement": "glycan array binding signal (z-score)", "setting": "[23]", "result": -0.793}, {"measurement": "glycan array binding signal (z-score)", "setting": "[24]", "result": 0.403}, {"measurement": "glycan array binding signal (z-score)", "setting": "[25]", "result": -0.603}, {"measurement": "glycan array binding signal (z-score)", "setting": "[26]", "result": 0.184}, {"measurement": "glycan array binding signal (z-score)", "setting": "[27]", "result": -0.499}, {"measurement": "glycan array binding signal (z-score)", "setting": "[28]", "result": 1.48}, {"measurement": "glycan array binding signal (z-score)", "setting": "Gal(a1-3)GalNAc", "result": 0.125}]}]}
